Results on one molecule are retold here after patent US12714702B2, “Compositions and methods for treating or preventing pulmonary hypertension” (priority 2020, dated 2026).

For one data set, the system named is primary human PASMC. Conditions: QA 2.5-10 μM, 3 hours, concentration-dependent.
Data set [1] deals with SU5416/hypoxia-induced PAH model. Conditions: SU5416/hypoxia rats, QA 10 mg/kg once-a-day.

In the case of `CCN(CC)CCCC(C)Nc1c2ccc(Cl)cc2nc2ccc(OC)cc12` (centres unmarked) [QA, quinacrine], the “cellular uptake (internalization)” value in the data set with primary human PASMC was “capable of inherently internalizing”. Moreover, the toxicity result in data set [1] is listed as “minimal toxicity”.
